The experiment has as its target HIF-1α (human (endogenous in HUVEC; species of the fibroblasts not stated)) (UniProt Q16665). Briefly: co-IP; lysates of HUVECs and fibroblasts of the Ctrl, MGO (800 μM MGO) and INS (800 μM MGO and 10^-6 M insulin) groups; which protein was precipitated is not told; no co-IP method is described.

Chains of the proteins cited; added tags and fusions are not shown.
UniProt Q16665: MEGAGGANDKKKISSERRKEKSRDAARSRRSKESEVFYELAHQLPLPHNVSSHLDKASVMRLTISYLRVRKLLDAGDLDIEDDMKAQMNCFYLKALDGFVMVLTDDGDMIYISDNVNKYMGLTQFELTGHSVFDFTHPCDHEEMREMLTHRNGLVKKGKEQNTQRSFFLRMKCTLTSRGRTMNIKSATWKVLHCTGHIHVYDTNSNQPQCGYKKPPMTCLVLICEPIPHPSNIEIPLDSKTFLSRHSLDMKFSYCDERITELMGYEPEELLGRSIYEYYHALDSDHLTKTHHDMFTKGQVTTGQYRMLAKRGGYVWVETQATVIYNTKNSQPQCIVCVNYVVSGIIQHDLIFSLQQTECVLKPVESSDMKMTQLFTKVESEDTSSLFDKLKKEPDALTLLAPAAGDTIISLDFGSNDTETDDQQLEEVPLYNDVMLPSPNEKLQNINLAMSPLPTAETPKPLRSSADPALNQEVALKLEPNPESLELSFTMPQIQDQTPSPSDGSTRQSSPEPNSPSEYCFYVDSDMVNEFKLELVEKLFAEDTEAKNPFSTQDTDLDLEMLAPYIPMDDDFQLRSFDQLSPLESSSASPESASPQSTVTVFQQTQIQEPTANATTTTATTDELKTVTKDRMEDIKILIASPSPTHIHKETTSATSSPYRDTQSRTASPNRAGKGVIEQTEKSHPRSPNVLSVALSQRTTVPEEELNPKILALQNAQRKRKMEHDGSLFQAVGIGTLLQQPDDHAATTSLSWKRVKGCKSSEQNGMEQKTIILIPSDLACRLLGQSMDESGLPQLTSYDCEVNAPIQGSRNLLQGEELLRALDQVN
UniProt Q92793: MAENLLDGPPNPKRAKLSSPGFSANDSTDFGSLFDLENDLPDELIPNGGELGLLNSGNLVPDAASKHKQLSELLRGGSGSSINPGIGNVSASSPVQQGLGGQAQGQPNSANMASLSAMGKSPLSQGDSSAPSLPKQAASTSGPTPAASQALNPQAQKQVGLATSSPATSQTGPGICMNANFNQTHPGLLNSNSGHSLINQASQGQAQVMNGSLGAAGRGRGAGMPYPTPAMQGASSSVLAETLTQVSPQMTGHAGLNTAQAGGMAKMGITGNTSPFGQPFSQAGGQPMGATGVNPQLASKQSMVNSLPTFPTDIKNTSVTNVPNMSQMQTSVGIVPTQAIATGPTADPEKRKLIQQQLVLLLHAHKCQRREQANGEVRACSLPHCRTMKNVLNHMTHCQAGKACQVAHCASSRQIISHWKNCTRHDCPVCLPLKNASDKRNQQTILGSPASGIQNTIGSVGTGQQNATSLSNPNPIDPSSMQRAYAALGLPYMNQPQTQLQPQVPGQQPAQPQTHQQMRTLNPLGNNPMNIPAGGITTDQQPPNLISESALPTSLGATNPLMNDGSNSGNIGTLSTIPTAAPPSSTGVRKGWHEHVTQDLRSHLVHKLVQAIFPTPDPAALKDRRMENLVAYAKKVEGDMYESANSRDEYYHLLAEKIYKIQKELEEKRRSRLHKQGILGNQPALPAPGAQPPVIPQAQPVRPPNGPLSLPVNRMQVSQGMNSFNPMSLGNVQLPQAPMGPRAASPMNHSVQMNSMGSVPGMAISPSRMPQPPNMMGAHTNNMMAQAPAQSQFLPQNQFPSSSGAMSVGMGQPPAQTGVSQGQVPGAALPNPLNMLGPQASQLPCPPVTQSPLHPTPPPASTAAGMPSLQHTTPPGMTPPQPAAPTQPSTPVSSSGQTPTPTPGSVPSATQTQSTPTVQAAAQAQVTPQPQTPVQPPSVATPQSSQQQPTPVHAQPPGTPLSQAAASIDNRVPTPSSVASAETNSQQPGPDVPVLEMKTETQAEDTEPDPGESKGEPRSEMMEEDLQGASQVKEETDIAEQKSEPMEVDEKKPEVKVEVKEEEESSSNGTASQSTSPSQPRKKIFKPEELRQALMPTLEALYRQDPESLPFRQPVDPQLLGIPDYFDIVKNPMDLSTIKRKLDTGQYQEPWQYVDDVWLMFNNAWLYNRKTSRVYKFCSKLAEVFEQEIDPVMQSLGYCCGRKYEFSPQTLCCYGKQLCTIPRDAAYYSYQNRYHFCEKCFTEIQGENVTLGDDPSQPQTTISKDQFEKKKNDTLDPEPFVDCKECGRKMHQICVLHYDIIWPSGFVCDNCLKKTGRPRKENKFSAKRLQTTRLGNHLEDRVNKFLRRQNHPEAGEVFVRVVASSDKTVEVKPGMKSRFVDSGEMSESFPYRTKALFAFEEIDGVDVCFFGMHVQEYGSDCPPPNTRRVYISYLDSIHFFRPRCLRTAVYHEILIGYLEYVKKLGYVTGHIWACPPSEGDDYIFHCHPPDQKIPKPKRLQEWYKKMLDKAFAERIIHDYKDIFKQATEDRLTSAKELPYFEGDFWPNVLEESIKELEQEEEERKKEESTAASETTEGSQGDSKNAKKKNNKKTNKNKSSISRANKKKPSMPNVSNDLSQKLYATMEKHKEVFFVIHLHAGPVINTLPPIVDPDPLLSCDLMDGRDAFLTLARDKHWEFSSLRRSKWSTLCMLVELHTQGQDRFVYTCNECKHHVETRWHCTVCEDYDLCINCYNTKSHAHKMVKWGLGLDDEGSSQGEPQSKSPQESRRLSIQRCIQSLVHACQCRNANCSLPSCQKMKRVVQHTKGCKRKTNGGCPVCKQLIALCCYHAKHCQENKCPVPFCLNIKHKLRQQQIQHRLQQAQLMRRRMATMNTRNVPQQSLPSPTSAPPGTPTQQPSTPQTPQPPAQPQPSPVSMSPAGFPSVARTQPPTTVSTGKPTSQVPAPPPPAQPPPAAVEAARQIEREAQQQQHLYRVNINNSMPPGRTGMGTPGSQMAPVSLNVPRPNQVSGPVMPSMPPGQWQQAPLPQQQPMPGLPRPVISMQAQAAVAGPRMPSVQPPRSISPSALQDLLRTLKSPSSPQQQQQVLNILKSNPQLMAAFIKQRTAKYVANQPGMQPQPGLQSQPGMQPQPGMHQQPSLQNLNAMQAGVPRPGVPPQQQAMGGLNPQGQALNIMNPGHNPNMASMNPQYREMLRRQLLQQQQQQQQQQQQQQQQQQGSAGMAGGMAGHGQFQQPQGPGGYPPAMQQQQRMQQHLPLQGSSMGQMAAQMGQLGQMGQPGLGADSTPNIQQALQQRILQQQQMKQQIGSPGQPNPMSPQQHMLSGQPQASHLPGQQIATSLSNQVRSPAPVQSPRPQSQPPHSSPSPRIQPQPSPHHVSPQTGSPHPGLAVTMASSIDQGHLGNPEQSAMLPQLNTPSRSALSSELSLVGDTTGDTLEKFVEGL

The text below walks through data of PMC7775506.

These are yes or no findings as the source states them, for the method shown. In cells and extracts the contact can be indirect. Some binding calls cover weakened binding; strength is not graded here.

For the substance CBP (from UniProt Q92793 1-2442), the binding entry is given as “binds”.
